According to PubChem BioAssay AID493014 (National Center for Advancing Translational Sciences (NCATS), 2011):
The campaign covered roughly 340,000 compounds. About 170 (0.05%) were called active. Inconclusive means that the source gave no clear call. Such entries were picked first, then a sample of the others. The call rests on the fitted dose curve; in most records, active means well fitted inhibition curve with a large enough effect in the signal ratio, with a control signal flat (not every such curve was filed as active); inconclusive means small, poorly fitted or top-dose-only effect, or effect the other way, or a change in a side signal; inactive means flat fitted curve, though single readings scatter; the % refers to the signal ratio. A potency beside an inconclusive call is a rough fit, not a confirmed value.

Experiment: qHTS Assay to Find Inhibitors of Chronic Active B-Cell Receptor Signaling;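 on activity change, negative = inhibition: plate controls were basal doxycycline-induced cells for no effect and cells given 10 µM MG132 for full effect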
Details: ABC-DLBCL IkBa-CBG/CBR reporter, luminescence ratio (green luciferase fused to IkBa over red control in TMD8 lymphoma cells), 4 h; activity change, negative = inhibition: at 46.1 µM (top of the series) unless noted
How it was run: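 TMD8 ABC-DLBCL cells carrying doxycycline-inducible green luciferase fused to IkappaBalpha plus unfused red luciferase were exposed to compounds (up to 46 uM) for 4 hrs at 37C. Activity came from the overlap-corrected green/red luminescence ratio.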
Potency means the concentration at half of the fitted maximal effect.

| Compound | activity change, negative = inhibition | Potency |
| --- | --- | --- |
| COCC(=O)N1CCC(Oc2ccc(C(=O)N3CCCCCCC3)cc2)CC1 | inactive: 1.71% | – |
| COc1ccc(S(=O)(=O)Nc2ccc3ccccc3c2)cc1C | inactive: -19% | – |
| COc1ccc(NC(=O)Cn2nc(C(F)(F)F)c3c2CCCC3)cc1OC | – | inconclusive: 16.4 µM [falling, partial curve, poor fit] |
| NC(=O)CSc1nc2c(sc3ccccc32)c(=O)n1CCCN1CCOCC1 | inconclusive: -0.498% | – |
| Cn1c(CN2CCCC2)nc2cc(NC(=O)c3ccc(Cl)cc3)ccc21 | – | inconclusive: 35.5 µM [falling, single point] |
| Cc1ccnc2nc(C(=O)OCC(=O)NCCc3ccccc3)nn12 | inactive: 8.54% | – |
| OC1C=CSc2nc3ccccc3n21 (centres undefined) | – | inconclusive: 7.31 µM [falling, partial curve, poor fit] |
| Cc1ccc(S(=O)(=O)Nc2c(C)n(C)n(-c3ccccc3)c2=O)cc1C(=O)OCC(=O)N1CCCC(C)C1 (centres undefined) | inconclusive: -1.87% | – |
| COc1ccc(-c2c(-c3ccc(OCC(=O)NN)cc3O)n[nH]c2C(F)(F)F)cc1 | inconclusive: 7.44% | – |
| CCOC(=O)/C(=N\Nc1ccc(C(C)=O)cc1)c1csc(Nc2ccccc2)n1 | inconclusive: -9.62% | – |
| Cc1ccc(-n2nnnc2SCC(=O)N2c3ccccc3NC(=O)C2(C)C)cc1 | inconclusive: -0.289% | – |
| Cc1cc(C(=O)Nc2ccc(N3CCCCC3)cc2)no1 | inconclusive: 14.3% | – |
| Nc1cc(N)nc(SCC(=O)c2ccccc2)n1 | – | inconclusive: 35.5 µM [falling, single point] |
| Cc1csc(=O)n1CCC(=O)OCC(=O)Nc1ccc(S(N)(=O)=O)cc1 | inconclusive: -0.464% | – |
| Cc1nc2ccccc2n1CCc1ccccc1 | inactive: 15.9% | – |
| Cc1cc(Cn2nnc(-c3ccc(Br)cc3)n2)cc(C)c1O | inconclusive: 5.17% | – |
| COc1cccc(/C=N/NC(=O)c2ccc(-c3ccccc3)cc2)c1O | – | inconclusive: 2.31 µM [falling, full curve] |
| C[C@H](NC(=O)c1nc[nH]c1C(=O)N1CCN(c2ccccc2)CC1)C(=O)OCc1ccccc1 | inconclusive: 0.497% | – |
| Cc1cccc(C)c1NC(=S)N(CCN1CCCCCC1)Cc1ccco1 | inconclusive: -12.9% | – |
| CCC(=O)NC(=S)Nc1cccc(NC(=O)c2ccc(Cl)cc2Cl)c1 | inconclusive: -17.8% | – |
| COc1cc(OC)c(C(=O)Nc2ccc(C(=O)c3ccccc3)cc2)cc1OC | inconclusive: 0.215% | – |
| O=C(Cc1cccs1)N1CCC(c2nc3c(nnn3Cc3ccccc3Cl)c(=O)[nH]2)CC1 | – | inconclusive: 11.2 µM [falling, partial curve, poor fit] |
| Cc1ccc2c(c1)N(C(=O)CCC(=O)N1CCC(C(N)=O)CC1)CC(C)O2 (centres undefined) | – | inconclusive: 2.51 µM [falling, partial curve] |
| Cc1cc2c(cc1S(=O)(=O)N1CC(C)CC(C)C1)OCC(=O)N2 (centres undefined) | inconclusive: 5.45% | – |
| COc1ccc(CNC(=O)CN(C(=O)CCC(=O)Nc2ccccn2)c2ccc(C)cc2)cc1 | inconclusive: 6.34% | – |
| CSc1nc(=S)c2[nH]c(=S)[nH]c2[nH]1 | inactive: -6.13% | – |
| CC(=O)Nc1nc(SCCCc2ccccc2)n[nH]1 | inactive: -9.2% | – |

| Compound | activity change, negative = inhibition | Potency |
| --- | --- | --- |
| COc1cccc(C2C=C(Nc3ccccc3)C(=O)N2c2ccccc2)c1 (centres undefined) | inconclusive: -5.76% | – |
| Cc1cccc(C(=O)NCC(=O)N2CCN(c3ccccn3)CC2)c1 | inactive: -5.08% | – |
| COc1ccc(C2=CC3=C(Br)C(=O)C(C)(OC(=O)c4ccc(Cl)nc4)C(=O)C3=CO2)cc1 (centres undefined) | inconclusive: 10.1% | – |
| CC(=O)Nc1ccc(Cl)c(-c2nc3ncccc3o2)c1 | inconclusive: -0.429% | – |
| Cc1cnc2cc(Cl)ccc2c1SCC(=O)O | inconclusive: 0.703% | – |
| C=C(C)CSc1nnc(-c2ccc(OC)cc2)n1N | inconclusive: 11% | – |
| CN(c1ccc(C(=O)Nc2ccccc2Sc2ccccc2)cc1)S(C)(=O)=O | – | inconclusive: 22.4 µM [falling, single point] |
| O=C(NN1C(=O)/C(=C/c2ccc(O)c(O)c2)SC1=S)c1ccccc1 | inconclusive: 12.4% | – |
| CC(=O)c1cccc(NS(=O)(=O)c2ccc(-c3cnc(C4CC4)o3)cc2)c1 | inactive: -13.2% | – |
| NC(=O)c1ccccc1NC(=O)c1ccc2c(c1)OCO2 | inconclusive: 1.2% | – |
| O=C(Nc1ccc(F)cc1)c1cnc(-c2ccccc2)nc1-c1ccccc1 | inconclusive: 7.17% | – |
| Cc1cc(NC(=O)c2cc3n(n2)C(C(F)(F)F)CC(c2ccco2)N3)n(-c2ccccc2)n1 (centres undefined) | – | inconclusive: 7.31 µM [rising, partial curve] |
| COc1ccc(-c2nn(-c3ccccc3)cc2C(=O)NC(=S)N2CCOCC2)cc1OC | inconclusive: 4.61% | – |
| CC1=C(C(=O)Nc2ccccc2)C(c2ccc[nH]2)n2ncnc2N1 (centres undefined) | – | inconclusive: 10.3 µM [rising, partial curve, poor fit] |
| COc1ccc(CNC(=O)CN(c2cccc(OC)c2)S(C)(=O)=O)cc1 | – | inconclusive: 35.5 µM [falling, partial curve, poor fit] |
| COc1ccc(C(=O)/C=C/C(=O)N(Cc2ccccc2)C(C(=O)NC2CCCCC2)c2ccncc2)c(O)c1 (centres undefined) | inconclusive: -1.46% | – |
| O=C(Nc1cccc(Oc2ccc3c(c2)C(=O)NC3=O)c1)c1cccs1 | – | inconclusive: 23.1 µM [falling, partial curve] |
| COC(=O)[C@@]1(Cc2ccccc2)[C@H]2C(=O)N(C)C(=O)[C@H]2[C@H]2CN=C(SC)N21 | inactive: 0.436% | – |
| Cc1ccc(C(=O)OCC(=O)NNC(=O)c2cccs2)c(O)c1 | inactive: 9.29% | – |
| O=C(CCl)N1CCN(S(=O)(=O)c2ccc3c(c2)CCC3)CC1 | inconclusive: 5.88% | – |
| CN(CC(=O)Nc1ccc(Cl)c(Cl)c1)C1CCCCC1 | inconclusive: 9.1% | – |
| CC(C)(C)C(=O)Nc1cccc(-c2nc3ccccc3c(=O)o2)c1 | – | inconclusive: 35.5 µM [falling, single point] |
| COC(=O)c1ccc(N2CCCCC2)c(NC(=O)c2ccco2)c1 | inactive: 3.54% | – |
| CCCN1CCc2c(sc3nc(SC)n(-c4ccccc4)c(=O)c23)C1 | inconclusive: 0.945% | – |
| CN1c2ccccc2C(=O)/C(=C\Nc2ccc(F)cc2)S1(=O)=O | inconclusive: -15.8% | – |
| CCCCN(CC)CCNC(=O)c1cc2c(=O)[nH]c3ccccc3c2s1 | inactive: 5.31% | – |
| COc1cccc(NC(=O)c2cc3cccc(OC)c3o/c2=N\O)c1 | – | inconclusive: 35.5 µM [falling, single point] |

Quoted from the listing.
Potency, Cc1cc(NC(=O)c2cc3n(n2)C(C(F)(F)F)CC(c2ccco2)N3)n(-c2ccccc2)n1 (centres undefined) is entered as inconclusive: 7.31 µM [rising, partial curve]
activity change, negative = inhibition, COc1cccc(C2C=C(Nc3ccccc3)C(=O)N2c2ccccc2)c1 (centres undefined) is entered as inconclusive: -5.76%

Remaining list, next part:

| Compound | activity change, negative = inhibition | Potency |
| --- | --- | --- |
| Cc1nc2cc(-c3cccc(Cl)c3)nn2c(N2CCN(C(=O)c3ccco3)CC2)c1C | inactive: -0.292% | – |
| CCC1CCC(N2CCN(c3ccc([N+](=O)[O-])cc3)CC2)CC1 (centres undefined) | inactive: 0.123% | – |
| CCOC(=O)C1=C(CC)Nc2ccccc2N=C1NC(=O)c1cccc(S(=O)(=O)N2CCOCC2)c1 | inconclusive: 5.82% | – |
| COc1ccc(CC(=O)Nc2ccc(S(=O)(=O)N(C)C3CCN(C)CC3)cc2)cc1 | inactive: -0.0394% | – |
| COc1ccc(C(=O)Nc2ccc(F)cc2F)cc1 | – | inconclusive: 0.58 µM [falling, partial curve, poor fit] |
| COc1cc(/C=C(\C#N)C(=O)NC(C)C)ccc1OCc1ccc(C(=O)O)cc1 | – | inconclusive: 1.26 µM [falling, partial curve, poor fit] |
| CN(C)c1ccc(CN(C(=O)c2ccccc2Br)C2CCS(=O)(=O)C2)cc1 (centres undefined) | – | inconclusive: 5.01 µM [falling, full curve, poor fit] |
| CCCC(=O)N(c1ccc(OCC)cc1)C1C=CS(=O)(=O)C1 (centres undefined) | – | inconclusive: 6.51 µM [rising, partial curve, poor fit] |
| COc1cc(C=Nc2ccccc2C(=O)Nc2ccccc2)cc(OC)c1OC | inactive: -4.37% | – |
| O=C(Nc1cc(C(F)(F)F)ccc1-n1cncn1)c1ccc(-c2ccccc2)cc1 | inactive: -2.66% | – |
| COc1ccc(CN2C[C@H](Cc3ccccc3)[C@@H](CC(=O)Nc3ccccc3)C2=O)cc1 | inconclusive: -2.96% | – |
| O=C1CN(C(=O)COC(=O)[C@@H]2CC(O)CN2S(=O)(=O)c2ccc(Cl)cc2)c2ccccc2N1 (some centres undefined) | inconclusive: -1.93% | – |
| O=C(NC(=S)NCCC1=CCCCC1)c1ccccc1Br | inconclusive: 23.4% | – |
| CCOc1ccc(NS(=O)(=O)c2cc(C(=O)NCCCN3CCCC3=O)ccc2C)cc1 | inactive: 0.279% | – |
| O=C(Cc1ccccc1)NCC(=O)OCC(=O)c1ccc(Cl)c([N+](=O)[O-])c1 | inconclusive: 15.6% | – |
| NC(=O)c1cc[n+](CC2=C(C(=O)O)N3C(=O)[C@@H](NC(=O)C(c4ccccc4)S(=O)(=O)[O-])[C@H]3SC2)cc1 (some centres undefined) | inactive: 5.05% | – |
| Cc1ccc(S(=O)(=O)N2CCCC2C(=O)OCc2ccco2)cc1 (centres undefined) | inactive: 5.43% | – |
| Cc1ccc(C(=O)OCc2nc3ccsc3c(=O)[nH]2)o1 | inconclusive: -4% | – |
| O=C(CCCOc1ccccc1)Nc1cc(S(=O)(=O)N2CCOCC2)ccc1N1CCOCC1 | inactive: 0.248% | – |
| COc1ncnc2c1sc1nc(-c3ccccc3)c3c(c12)CCCC3 | inconclusive: 13% | – |
| Nc1nc(CSc2ncn(-c3ccccc3)n2)cs1 | – | inconclusive: 20.6 µM [falling, single point] |
| CC(C)CCNc1nnnc2c1sc1nc(N3CCOCC3)c3c(c12)CC(C)(C)SC3 | – | inconclusive: 6.51 µM [falling, single point] |
| FC(F)Sc1ccc(NC(=S)N2CCN(c3ccccn3)CC2)cc1 | inconclusive: 8.23% | – |
| O=C(Cc1cn(Cc2cccc(Cl)c2)c2ccccc12)N1CCCCCC1 | inconclusive: 2.36% | – |
| CCOc1ccc(N(C)S(=O)(=O)c2ccc(C)c(C(=O)NCCc3ccc(OC)cc3)c2)cc1 | inactive: 11.5% | – |

Among those listed so far, 8 have fluorine.

| Compound | activity change, negative = inhibition | Potency |
| --- | --- | --- |
| COc1ccc(NC(=O)Cn2nc(C(F)(F)F)c3c2CCCC3)cc1OC | – | inconclusive: 16.4 µM [falling, partial curve, poor fit] |
| COc1ccc(-c2c(-c3ccc(OCC(=O)NN)cc3O)n[nH]c2C(F)(F)F)cc1 | inconclusive: 7.44% | – |
| O=C(Nc1ccc(F)cc1)c1cnc(-c2ccccc2)nc1-c1ccccc1 | inconclusive: 7.17% | – |
| Cc1cc(NC(=O)c2cc3n(n2)C(C(F)(F)F)CC(c2ccco2)N3)n(-c2ccccc2)n1 (centres undefined) | – | inconclusive: 7.31 µM [rising, partial curve] |
| CN1c2ccccc2C(=O)/C(=C\Nc2ccc(F)cc2)S1(=O)=O | inconclusive: -15.8% | – |
| COc1ccc(C(=O)Nc2ccc(F)cc2F)cc1 | – | inconclusive: 0.58 µM [falling, partial curve, poor fit] |
| O=C(Nc1cc(C(F)(F)F)ccc1-n1cncn1)c1ccc(-c2ccccc2)cc1 | inactive: -2.66% | – |
| FC(F)Sc1ccc(NC(=S)N2CCN(c3ccccn3)CC2)cc1 | inconclusive: 8.23% | – |
